Positions of bridges follow the written chain, without caps; N, C: chain ends. Residues, ends and D or L forms follow the SMILES beside them.
Each compound was assayed on all the test strains. Settings: 128 μM used for MHC when less than 2% hemolysis at 64 μM.
Type: cell-based
Experimental: The antimicrobial activity of the peptides was determined using two-fold serial dilutions in sterile 96-well flat-bottom polystyrene microplates (Eppendorf, Hamburg, Germany) (Cat. No. 0030730011), as previously described. The following strains of bacteria were used: E. coli ATCC 25922, E. coli ML35p (ATCC collection), E. coli BW 25113 (Keio collection), Pseudomonas aeruginosa PAO1 (ATCC collection), P. aeruginosa ATCC 27853, Klebsiella pneumoniae ATCC 700603, Staphylococcus aureus 209P (ATCC collection), S. aureus ATCC 29213, and Micrococcus luteus B-1314 (VKM collection). Acinetobacter baumannii (strain XDR CI 2675) was provided by the I.M. Sechenov First Moscow State Medical University hospital. After a 24 h incubation period, the metabolic activity of the bacteria was assessed by adding 20 µL of a redox indicator, resazurin (Sigma-Aldrich, St. Louis, MO, USA), at a concentration of 0.1 mg/mL, to the wells. The plate was then incubated for a further two hours. The minimum inhibitory concentration (MIC) was determined as the lowest concentration of the peptide at which no color change in the resazurin indicator was observed. The results were presented as median values, which were determined based on at least three independent experiments carried out in triplicate.

SMILES	TI, therapeutic index (ratio of the MHC to the MIC (GM))
CC(C)C[C@H](NC(=O)[C@H](CCCNC(=N)N)NC(=O)CNC(=O)CNC(=O)[C@@H](N)CCCNC(=N)N)C(=O)N[C@H]1CSSC[C@@H](C(=O)N[C@H](C(=O)NCC(=O)N[C@@H](CCCNC(=N)N)C(=O)O)C(C)C)NC(=O)[C@H](C(C)C)NC(=O)[C@@H]2CSSC[C@H](NC(=O)[C@H](Cc3ccc(O)cc3)NC1=O)C(=O)N[C@@H](CCCNC(=N)N)C(=O)N[C@@H](CCCNC(=N)N)C(=O)N[C@@H](CCCNC(=N)N)C(=O)N[C@@H](Cc1ccccc1)C(=O)N2 [PG-1, Protegrin-1] (H-RGGRLCYCRRRFCVCVGR-OH; disulfide 6-15, 8-13; N-terminus and C-terminus assumed)	1.8
CC(C)[C@H](NC(=O)[C@@H]1CSSC[C@H](NC(=O)[C@H](CCCNC(=N)N)NC(=O)[C@H](CCCNC(=N)N)NC(=O)CNC(=O)CNC(=O)[C@@H](N)CCCNC(=N)N)C(=O)N[C@@H](Cc2ccc(O)cc2)C(=O)N[C@H]2CSSC[C@H](NC(=O)[C@H](Cc3ccccc3)NC(=O)[C@H](CCCNC(=N)N)NC(=O)[C@H](CCCNC(=N)N)NC(=O)[C@H](CCCNC(=N)N)NC2=O)C(=O)N[C@@H](C(C)C)C(=O)N1)C(=O)NCC(=O)N[C@@H](CCCNC(=N)N)C(=O)O [[L5R]] (H-RGGRRCYCRRRFCVCVGR-OH; disulfide 6-15, 8-13; N-terminus and C-terminus assumed)	3.3
CC(C)[C@@H]1NC(=O)[C@@H]2CSSC[C@H](NC(=O)[C@H](Cc3ccc(O)cc3)NC(=O)[C@@H](NC(=O)[C@H](C)NC(=O)[C@H](CCCNC(=N)N)NC(=O)CNC(=O)CNC(=O)[C@@H](N)CCCNC(=N)N)CSSC[C@@H](C(=O)N[C@@H](CCCNC(=N)N)C(=O)NCC(=O)N[C@@H](CCCNC(=N)N)C(=O)O)NC1=O)C(=O)N[C@@H](CCCNC(=N)N)C(=O)N[C@@H](CCCNC(=N)N)C(=O)N[C@@H](CCCNC(=N)N)C(=O)N[C@@H](Cc1ccccc1)C(=O)N2 [[L5A,V16R]] (H-RGGRACYCRRRFCVCRGR-OH; disulfide 6-15, 8-13; N-terminus and C-terminus assumed)	26.0
CC(C)C[C@H](NC(=O)[C@H](CCCNC(=N)N)NC(=O)CNC(=O)CNC(=O)[C@@H](N)CCCNC(=N)N)C(=O)N[C@H]1CSSC[C@@H](C(=O)N[C@@H](C)C(=O)NCC(=O)N[C@@H](CCCNC(=N)N)C(=O)O)NC(=O)[C@H](C(C)C)NC(=O)[C@@H]2CSSC[C@H](NC(=O)[C@H](Cc3ccc(O)cc3)NC1=O)C(=O)N[C@@H](CCCNC(=N)N)C(=O)N[C@@H](CCCNC(=N)N)C(=O)N[C@@H](CCCNC(=N)N)C(=O)N[C@@H](Cc1ccccc1)C(=O)N2 [[V16A]] (H-RGGRLCYCRRRFCVCAGR-OH; disulfide 6-15, 8-13; N-terminus and C-terminus assumed)	10.6
CC(C)[C@H](NC(=O)[C@@H]1CSSC[C@H](NC(=O)[C@H](C)NC(=O)[C@H](CCCNC(=N)N)NC(=O)CNC(=O)CNC(=O)[C@@H](N)CCCNC(=N)N)C(=O)N[C@@H](Cc2ccc(O)cc2)C(=O)N[C@H]2CSSC[C@H](NC(=O)[C@H](Cc3ccccc3)NC(=O)[C@H](CCCNC(=N)N)NC(=O)[C@H](CCCNC(=N)N)NC(=O)[C@H](CCCNC(=N)N)NC2=O)C(=O)N[C@@H](C)C(=O)N1)C(=O)NCC(=O)N[C@@H](CCCNC(=N)N)C(=O)O [[L5A,V14A]] (H-RGGRACYCRRRFCACVGR-OH; disulfide 6-15, 8-13; N-terminus and C-terminus assumed)	4.2
CC(C)C[C@H](NC(=O)[C@H](CCCNC(=N)N)NC(=O)CNC(=O)CNC(=O)[C@@H](N)CCCNC(=N)N)C(=O)N[C@H]1CSSC[C@@H](C(=O)N[C@H](C(=O)NCC(=O)N[C@@H](CCCNC(=N)N)C(=O)O)C(C)C)NC(=O)[C@H](C(C)C)NC(=O)[C@@H]2CSSC[C@H](NC(=O)[C@H](CCCNC(=N)N)NC1=O)C(=O)N[C@@H](CCCNC(=N)N)C(=O)N[C@@H](CCCNC(=N)N)C(=O)N[C@@H](CCCNC(=N)N)C(=O)N[C@@H](Cc1ccccc1)C(=O)N2 [[Y7R]] (H-RGGRLCRCRRRFCVCVGR-OH; disulfide 6-15, 8-13; N-terminus and C-terminus assumed)	24.9
CC(C)[C@H](NC(=O)[C@@H]1CSSC[C@H](NC(=O)[C@H](C)NC(=O)[C@H](CCCNC(=N)N)NC(=O)CNC(=O)CNC(=O)[C@@H](N)CCCNC(=N)N)C(=O)N[C@@H](Cc2ccc(O)cc2)C(=O)N[C@H]2CSSC[C@H](NC(=O)[C@H](Cc3ccccc3)NC(=O)[C@H](CCCNC(=N)N)NC(=O)[C@H](CCCNC(=N)N)NC(=O)[C@H](CCCNC(=N)N)NC2=O)C(=O)N[C@@H](C(C)C)C(=O)N1)C(=O)NCC(=O)N[C@@H](CCCNC(=N)N)C(=O)O [[L5A]] (H-RGGRACYCRRRFCVCVGR-OH; disulfide 6-15, 8-13; N-terminus and C-terminus assumed)	9.4
CC(C)C[C@H](NC(=O)[C@H](CCCNC(=N)N)NC(=O)CNC(=O)CNC(=O)[C@@H](N)CCCNC(=N)N)C(=O)N[C@H]1CSSC[C@@H](C(=O)N[C@H](C(=O)NCC(=O)N[C@@H](CCCNC(=N)N)C(=O)O)C(C)C)NC(=O)[C@H](CCCNC(=N)N)NC(=O)[C@@H]2CSSC[C@H](NC(=O)[C@H](Cc3ccc(O)cc3)NC1=O)C(=O)N[C@@H](CCCNC(=N)N)C(=O)N[C@@H](CCCNC(=N)N)C(=O)N[C@@H](CCCNC(=N)N)C(=O)N[C@@H](Cc1ccccc1)C(=O)N2 [[V14R]] (H-RGGRLCYCRRRFCRCVGR-OH; disulfide 6-15, 8-13; N-terminus and C-terminus assumed)	13.0
CC(C)C[C@H](NC(=O)[C@H](CCCNC(=N)N)NC(=O)CNC(=O)CNC(=O)[C@@H](N)CCCNC(=N)N)C(=O)N[C@H]1CSSC[C@@H](C(=O)N[C@H](C(=O)NCC(=O)N[C@@H](CCCNC(=N)N)C(=O)O)C(C)C)NC(=O)[C@H](C(C)C)NC(=O)[C@@H]2CSSC[C@H](NC(=O)[C@H]([C@@H](C)O)NC1=O)C(=O)N[C@@H](CCCNC(=N)N)C(=O)N[C@@H](CCCNC(=N)N)C(=O)N[C@@H](CCCNC(=N)N)C(=O)N[C@@H](Cc1ccccc1)C(=O)N2 [[Y7T]] (H-RGGRLCTCRRRFCVCVGR-OH; disulfide 6-15, 8-13; N-terminus and C-terminus assumed)	7.6
CC(C)C[C@H](NC(=O)[C@H](CCCNC(=N)N)NC(=O)CNC(=O)CNC(=O)[C@@H](N)CCCNC(=N)N)C(=O)N[C@H]1CSSC[C@@H](C(=O)N[C@H](C(=O)NCC(=O)N[C@@H](CCCNC(=N)N)C(=O)O)C(C)C)NC(=O)[C@H](C)NC(=O)[C@@H]2CSSC[C@H](NC(=O)[C@H](Cc3ccc(O)cc3)NC1=O)C(=O)N[C@@H](CCCNC(=N)N)C(=O)N[C@@H](CCCNC(=N)N)C(=O)N[C@@H](CCCNC(=N)N)C(=O)N[C@@H](Cc1ccccc1)C(=O)N2 [[V14A]] (H-RGGRLCYCRRRFCACVGR-OH; disulfide 6-15, 8-13; N-terminus and C-terminus assumed)	13.5
CC(C)[C@@H]1NC(=O)[C@@H]2CSSC[C@H](NC(=O)[C@H](Cc3ccc(O)cc3)NC(=O)[C@@H](NC(=O)[C@H](C)NC(=O)[C@H](CCCNC(=N)N)NC(=O)CNC(=O)CNC(=O)[C@@H](N)CCCNC(=N)N)CSSC[C@@H](C(=O)N[C@@H](C)C(=O)NCC(=O)N[C@@H](CCCNC(=N)N)C(=O)O)NC1=O)C(=O)N[C@@H](CCCNC(=N)N)C(=O)N[C@@H](CCCNC(=N)N)C(=O)N[C@@H](CCCNC(=N)N)C(=O)N[C@@H](Cc1ccccc1)C(=O)N2 [[L5A,V16A]] (H-RGGRACYCRRRFCVCAGR-OH; disulfide 6-15, 8-13; N-terminus and C-terminus assumed)	2.7
CC(C)C[C@H](NC(=O)[C@H](CCCNC(=N)N)NC(=O)CNC(=O)CNC(=O)[C@@H](N)CCCNC(=N)N)C(=O)N[C@H]1CSSC[C@@H](C(=O)N[C@@H](CCCNC(=N)N)C(=O)NCC(=O)N[C@@H](CCCNC(=N)N)C(=O)O)NC(=O)[C@H](C(C)C)NC(=O)[C@@H]2CSSC[C@H](NC(=O)[C@H]([C@@H](C)O)NC1=O)C(=O)N[C@@H](CCCNC(=N)N)C(=O)N[C@@H](CCCNC(=N)N)C(=O)N[C@@H](CCCNC(=N)N)C(=O)N[C@@H](Cc1ccccc1)C(=O)N2 [[Y7T,V16R]] (H-RGGRLCTCRRRFCVCRGR-OH; disulfide 6-15, 8-13; N-terminus and C-terminus assumed)	6.1
CC(C)C[C@H](NC(=O)[C@H](CCCNC(=N)N)NC(=O)CNC(=O)CNC(=O)[C@@H](N)CCCNC(=N)N)C(=O)N[C@H]1CSSC[C@@H](C(=O)N[C@@H](CCCNC(=N)N)C(=O)NCC(=O)N[C@@H](CCCNC(=N)N)C(=O)O)NC(=O)[C@H](C)NC(=O)[C@@H]2CSSC[C@H](NC(=O)[C@H](Cc3ccc(O)cc3)NC1=O)C(=O)N[C@@H](CCCNC(=N)N)C(=O)N[C@@H](CCCNC(=N)N)C(=O)N[C@@H](CCCNC(=N)N)C(=O)N[C@@H](Cc1ccccc1)C(=O)N2 [[V14A,V16R]] (H-RGGRLCYCRRRFCACRGR-OH; disulfide 6-15, 8-13; N-terminus and C-terminus assumed)	26.0
